Source: PMC5509740
These are yes or no findings as the source states them, for the method shown. In cells and extracts the contact can be indirect. These calls come from enrichment with a bait or labelling near it, and not all partners need be listed.

Protein sequences, listed by entry. Tags and fused reporters are not part of them.
UniProt Q3UHD9: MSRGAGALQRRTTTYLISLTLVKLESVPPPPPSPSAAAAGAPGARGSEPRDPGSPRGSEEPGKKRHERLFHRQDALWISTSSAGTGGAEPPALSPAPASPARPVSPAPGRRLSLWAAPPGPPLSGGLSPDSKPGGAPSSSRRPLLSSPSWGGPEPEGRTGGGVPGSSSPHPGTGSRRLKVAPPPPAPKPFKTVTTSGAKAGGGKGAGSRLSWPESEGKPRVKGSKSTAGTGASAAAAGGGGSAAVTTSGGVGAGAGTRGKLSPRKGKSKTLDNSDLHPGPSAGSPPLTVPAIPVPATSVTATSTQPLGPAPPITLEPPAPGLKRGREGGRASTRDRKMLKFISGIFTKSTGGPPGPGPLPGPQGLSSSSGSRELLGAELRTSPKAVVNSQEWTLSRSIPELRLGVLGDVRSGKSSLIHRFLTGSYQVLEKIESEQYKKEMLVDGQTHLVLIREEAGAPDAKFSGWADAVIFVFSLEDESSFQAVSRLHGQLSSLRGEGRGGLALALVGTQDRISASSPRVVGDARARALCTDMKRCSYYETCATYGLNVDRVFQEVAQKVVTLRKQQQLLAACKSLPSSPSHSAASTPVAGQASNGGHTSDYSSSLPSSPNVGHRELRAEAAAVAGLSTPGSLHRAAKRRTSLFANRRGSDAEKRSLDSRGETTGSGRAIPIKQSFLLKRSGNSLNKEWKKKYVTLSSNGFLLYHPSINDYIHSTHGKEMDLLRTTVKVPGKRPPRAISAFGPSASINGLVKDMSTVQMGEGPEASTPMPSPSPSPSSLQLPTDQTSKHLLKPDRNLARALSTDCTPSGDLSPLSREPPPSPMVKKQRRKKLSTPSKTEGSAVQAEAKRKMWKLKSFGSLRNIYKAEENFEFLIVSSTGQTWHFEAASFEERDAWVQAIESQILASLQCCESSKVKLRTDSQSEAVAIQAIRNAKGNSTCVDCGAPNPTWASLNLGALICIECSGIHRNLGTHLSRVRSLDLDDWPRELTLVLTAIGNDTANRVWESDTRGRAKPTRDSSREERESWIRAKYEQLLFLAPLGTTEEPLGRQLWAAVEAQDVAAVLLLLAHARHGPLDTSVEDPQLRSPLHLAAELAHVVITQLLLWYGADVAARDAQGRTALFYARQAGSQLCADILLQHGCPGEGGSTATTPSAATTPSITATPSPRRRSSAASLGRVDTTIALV

B1: Dab2ip (protein, UniProt Q3UHC7 1-1189)
chain: MSAGGNARKSTGRPSYYYRLLRRPRLQRQRSRSRSRTRPARESPQERPGSRRSLPGSMSEKNPSMEPSASTPFRVTGFLSRRLKGSIKRTKSQPKLDRNHSFRHILPGFRSAAAAAADNERSHLMPRLKESRSHESLLSPSSAVEALDLSMEEEVIIKPVHSSILGQDYCFEVTTSSGSKCFSCRSAAERDKWMENLRRAVHPNKDNSRRVEHILKLWVIEAKDLPAKKKYLCELCLDDVLYARTTSKLKTDNVFWGEHFEFHNLPPLRTVTVHLYRETDKKKKKERNSYLGLVSLPAASVAGRQFVEKWYPVVTPNPKGGKGPGPMIRIKARYQTVSILPMEMYKEFAEHITNHYLGLCAALEPILSAKTKEEMASALVHILQSTGKVKDFLTDLMMSEVDRCGDNEHLIFRENTLATKAIEEYLKLVGQKYLQDALGEFIKALYESDENCEVDPSKCSSADLPEHQGNLKMCCELAFCKIINSYCVFPRELKEVFASWRQECSSRGRPDISERLISASLFLRFLCPAIMSPSLFNLLQEYPDDRTARTLTLIAKVTQNLANFAKFGSKEEYMSFMNQFLEHEWTNMQRFLLEISNPETLSNTAGFEGYIDLGRELSSLHSLLWEAVSQLDQSVVSKLGPLPRILRDVHTALSTPGSGQLPGTNDLASTPGSGSSSVSAGLQKMVIENDLSGLIDFTRLPSPTPENKDLFFVTRSSGVQPSPARSSSYSEANEPDLQMANGSKSLSMVDLQDARTLDGEAGSPVGPDALPADGQVPATQLLAGWPARAAPVSLAGLATVRRAVPTPTTPGTSEGAPGRPQLLAPLSFQNPVYQMAAGLPLSPRGLGDSGSEGHSSLSSHSNSEELAAAAKLGSFSTAAEELARRPGELARRQMSLTEKGGQPTVPRQNSAGPQRRIDQPPPPPPPPPPAPRGRTPPTLLSTLQYPRPSSGTLASASPDWAGPGTRLRQQSSSSKGDSPELKPRAMHKQGPSPVSPNALDRTAAWLLTMNAQLLEDEGLGPDPPHRDRLRSKEELSQAEKDLAVLQDKLRISTKKLEEYETLFKCQEETTQKLVLEYQARLEEGEERLRRQQEDKDIQMKGIISRLMSVEEELKKDHAEMQAAVDSKQKIIDAQEKRIASLDAANARLMSALTQLKERYSMQARNGVSPTNPTKLQITENGEFRNSSNC
B2: Dclk1 (enzyme, UniProt Q9JLM8 1-756)
chain: MSFGRDMELEHFDERDKAQRYSRGSRVNGLPSPTHSAHCSFYRTRTLQTLSSEKKAKKVRFYRNGDRYFKGIVYAISPDRFRSFEALLADLTRTLSDNVNLPQGVRTIYTIDGLKKISSLDQLVEGESYVCGSIEPFKKLEYTKNVNPNWSVNVKTTSASRAVSSLATAKGGPSEVRENKDFIRPKLVTIIRSGVKPRKAVRILLNKKTAHSFEQVLTDITDAIKLDSGVVKRLYTLDGKQVMCLQDFFGDDDIFIACGPEKFRYQDDFLLDESECRVVKSTSYTKIASASRRGTTKSPGPSRRSKSPASTSSVNGTPGSQLSTPRSGKSPSPSPTSPGSLRKQRISQHGGSSTSLSSTKVCSSMDENDGPGEGDELGRRHSLQRGWRREESEEGFQIPATITERYKVGRTIGDGNFAVVKECIERSTAREYALKIIKKSKCRGKEHMIQNEVSILRRVKHPNIVLLIEEMDVPTELYLVMELVKGGDLFDAITSTSKYTERDASGMLYNLASAIKYLHSLNIVHRDIKPENLLVYEHQDGSKSLKLGDFGLATIVDGPLYTVCGTPTYVAPEIIAETGYGLKVDIWAAGVITYILLCGFPPFRGSGDDQEVLFDQILMGQVDFPSPYWDNVSDSAKELINMMLLVNVDQRFSAVQVLEHPWVNDDGLPENEHQLSVAGKIKKHFNTGPKPSSTAAGVSVIATTALDKERQVFRRRRNQDVRSRYKAQPAPPELNSESEDYSPSSSETVRSPNSPF

How the values were obtained:
[1] = target: Agap2 (mouse (endogenous in adult mouse cortex)) (UniProt Q3UHD9); experiment: affinity purification with mass spectrometry; immunoprecipitation of the endogenous bait (Agap2, Syngap1 or Kalirin) with its antibody and protein G Dynabeads from the PSD (DOC-soluble) fraction of adult mouse cortex, 2 mg protein, 4 degrees Celsius overnight; washes 25 mM Tris pH 7.4, 150 mM NaCl, 1 mM EDTA, 1% sodium deoxycholate; HPLC-MS/MS; positive if at least two peptides in at least two assays and absent in anti-GST controls
[2] = target: Agap2 (mouse (endogenous in adult mouse cortex)) (UniProt Q3UHD9); experiment: affinity purification with mass spectrometry; immunoprecipitation of endogenous Agap2 with its antibody and protein G Dynabeads from the non-PSD (Triton-soluble) fraction of adult mouse cortex, 2 mg protein, 4 degrees Celsius overnight; washes 25 mM Tris pH 7.4, 150 mM NaCl, 1 mM EDTA, 1% Triton X-100; HPLC-MS/MS; positive if at least two peptides in at least two assays and absent in anti-GST controls

Row | Binder | binding [1] | binding [2]
1 | B1 | binds | binds
2 | B2 | – | binds
